The values below come from US20160214941A1, “Compounds for lnhibition of Unregulated Cell Growth” (GODAVARI BIOREFINERIES LIMITED, priority 2013, published 2016).

Assay type in all cases: cell-based
Experiment [1] has as its system MDA MB 231. In words: In vitro soft agar colony forming growth assay. The following applies: MDA MB 231, one week. On the procedure: (§1) Compounds of Formula IV were evaluated in an in vitro soft agar colony forming growth inhibition assay as described by Lieber, M M, and Kovach, J S. Soft agar colony formation assay for chemotherapeutic sensitivity of human solid tumors. Mayo Clin Proc 1982; 57: 527-528 and Tanigawa, N, Kern, D H, Kikasa, Y, and Morton, D L. Rapid assay for evaluating the chemosensitivity of human tumors in soft agar culture. Cancer Res 1982; 42: 2159-2164.
(§2) An exemplary procedure for the in vitro soft agar colony forming growth inhibition assay is as follows.

A further experiment relates to HeLa. The experiment can be described thus: In vitro soft agar colony forming growth assay. The following applies: one week. Here is the method:
as §1, §2

A further experiment relates to MCF 7. In words: In vitro soft agar colony forming growth assay. The following applies: MCF 7, one week. Here is the method:
as §1, §2

Experiment [2] concerns MDA MB 231. In words: In vitro colorimetric cell death assay (MTT assay). The following applies: MDA MB 231 (breast cancer), 48 hours. On the procedure: MTT assay was carried for assessing cell viability where the cells were grown in two-dimensional surface. The procedure for the assay is as follows. Cancer cells were plated in 96 well plates as per predetermined plating efficiency. The plates were incubated for 24 hours in a 5% CO2 atmosphere at 37° C., a range of concentrations of the compound of the present invention was added to the wells, the plates were incubated further for 48 hours in a 5% CO2 atmosphere, the plates were centrifuged twice at 3000 rpm for 3 minutes, the supernatant fluid was discarded, 100 uL of 0.5 mg/mL MIT solution was added and the plates were incubated for 4 hours in a 5% CO2 atmosphere at 37° C. The plates were then centrifuged twice at 3000 rpm for 3 minutes, supernatant was aspirated very carefully, 200 uL DMSO was added to each well to solubilize MTT crystals and mixed well by shaking the plates, the plates were incubated for 10 minutes in a 5% CO2 atmosphere at 37° C., the plates were placed on the shaker of an ELISA plate reader and the absorbance at 570 nm was measured, then the percentage of viable cells remaining was calculated by first subtracting the background absorbance then comparing to the absorbance of a non-drug-treated cell sample, and the results were plotted on a graph to determine the IC50 for the compound as known in the art. The reference drug used was Cisplatin.
For orientation: Tetrazolium assays rely on reduction of a dye to a coloured formazan, in cell work by metabolically active cells.

In the case of `N.N.[Cl][Pt][Cl]` [Cisplatin], the half-maximal inhibitory concentration (IC50) (in general, the concentration that gives 50% inhibition) in the experiment with MDA MB 231 [1] was found to be 38.9 µM; in the experiment on HeLa, 3.5 µM; in the experiment on MCF 7, 38.9 µM; with MDA MB 231 [2], 75.2 µM.
